Assay results from PMC5923485 (Viruses, 2018).

Test system: RVFV MP12 ∆NSs-Luc
Experiment: microbe, parasite or virus in culture
Type: cell-based
Conditions: Rift Valley fever virus, 18 h

In the case of `C[S+]([O-])c1ccc(-c2nc(-c3ccncc3)c(-c3ccc(F)cc3)[nH]2)cc1` (stereo not shown) [SB203580], the EC50 is reported as > 100 µM.
